Laboratory results as given in patent US20240335547A1, “MODIFIED CHOLIC ACID CONJUGATES” (priority 2022, published 2024).
At least one compound was matched to its structure with a doubt left.

System: human coronavirus 229E
Test: Therapeutic activity against human coronavirus 229E in HFF cells
Assay type: cell-based
Description: (1) HFF cells (5×104) were seeded with 1 ml of DMEM media supplemented with 10% FBS in each well of four 24-well tissue culture plates. (2) Cell were cultured for 3 days until HFF cells in each well attained 90% confluency (media was changed 1 day before infection). 10 μl of the 10-time diluted original solution of coronavirus, about 1×10^5 PFU were added into each well. Infection was allowed to proceed overnight. (3) The media was changed 24 hours post infection. CSA-44 was added to test their anti-viral effects. Ten different concentrations of the drug were tested. They were 15 μg/ml, 10 μg/ml, 9 μg/ml, 8 μg/ml, 7 μg/ml, 6 μg/ml, 5 μg/ml, 4 μg/ml, 3 μg/ml, and 2 μg/ml with 0 μg/ml as the control. Each concentration has 12 wells for test. Cells were cultured for two weeks, and cell viability was quantified. CSA-44 was effective in inhibiting viral replication and growth. […]
(1) HFF cells (5×104) were seeded with 1 ml of DMEM media supplemented with 10% FBS in each well of four 24-well tissue culture plates. […] Cells were cultured in the presence of CSA-44 for […] and cell viability was quantified.
(1) HFF cells (5×104) were seeded with 1 ml of DMEM media supplemented with 10% FBS in each well of four 24-well tissue culture plates. […] Cells were cultured for two weeks, and cell viability was quantified. […]

## C[C@H](CCC(=O)NCCNC(=O)CCCC[C@@H]1SCC2NC(=O)NC21)C1CCC2C3C(C[C@H](OC(=O)CCN)[C@@]21C)[C@@]1(C)CC[C@@H](OC(=O)CCN)CC1C[C@H]3OC(=O)CCN (stereo partly shown) [Compound 12]
  antiviral activity after the virus infected the cells: high level of antiviral activity
